Reference: article PMC11091889, “Silver Organometallics that are Highly Potent Thioredoxin and Glutathione Reductase Inhibitors: Exploring the Correlations of Solution Chemistry with the Strong Antibacterial Effects” (ACS Infectious Diseases, 2024)
Read-outs that look alike come from different tables or passages of the source.

Tested on: S. aureus MRSA (DSM 11822, ICB 25701)
Test: microbe, parasite or virus in culture
Format: cell-based, methicillin resistant S. aureus
Conditions: Staphylococcus aureus, 22 h
Protocol: The antibacterial effect of the silver NHC complexes and selected ligands was evaluated in two Gram-positive [Enterococcus faecium, methicillin resistant S. aureus, (MRSA)] and in four Gram-negative (Acinetobacter baumannii, Escherichia coli, Klebsiella pneumoniae, and Pseudomonas aeruginosa) pathogenic bacterial strains using broth microdilution assays. The resulting minimal inhibitory concentrations (MICs, Table 2) and EC50 (Table S6) were determined by a curve fitting procedure. Silver nitrate (AgNO3), SSD, and various antibiotics were used as references. […]
The following strains of ESKAPE panel were utilized and maintained at 37 °C in MHB (21 g/L Müller Hinton broth, pH 7.4) or TSY (30 g/L trypticase soy broth, 3 g/L yeast extract, pH 7.0–7.2) media: A. baumannii (DSM 30007, ATCC 19606), E. coli (DSM1116, ATCC 9637), K. pneumoniae (DSM 11678, ATCC33495), P. aeruginosa PA7 (DSM 24068) in MHB; E. faecium (DSM 20477, ATCC 19434), and S. aureus MRSA (DSM 11822, ICB 25701) in TSY. MIC values were determined following a standardized protocol in broth microdilution assays. […] After incubation of the plates for 22 h at 37 °C, the absorbance at 600 nm was measured using The Spark multimode microplate reader (Tecan Trading AG). The MIC values for the tested compounds were determined in three independent experiments and presented in μM with standard errors and also in μg/mL. […]

Q: How did the MIC (read-out: MIC MRSA) turn out when CC(=O)NC[C@H]1CN(c2ccc(N3CCOCC3)c(F)c2)C(=O)O1 [linezolid, reference compound] was run?
A: 3.7 µM

Q: What about the MIC (read-out: MIC MRSA (value in brackets)) of the same compound?
A: 1 µg/mL
